PubChem BioAssay AID1224829 | NIAID, 2016
This is one part, drawn at random, of about 3,800 reagents. 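Calls cover raised and lowered translocation; gene median uses one vendor's three siRNAs; qiagen siRNAs acted more weakly than ambion siRNAs.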 A number with no mark means an inactive call.

Purpose: 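Secondary check of hits that alter LPS-induced p65 translocation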 (follow-up of hits)
Cells: mouse RAW264.7 G9 macrophage reporter cells
Reagents: single siRNA against mouse genes, 100 nM
Timing: 2 days of siRNA knock-down, then 40 min of LPS before fixing
Challenge: LPS (Salmonella minnesota R595) at 10 ng/ml
Measured: 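High-content images after 40 min LPS exposure; GFP-p65 nucleus to surrounding ring signal ratio, normalised to plate median and non-targeting control wells, expressed as z-score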
Scale: p65 translocation z-score and gene median z-score, per vendor: higher = more nuclear NF-kappaB p65 after LPS
Active means: 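Active means the replicate-mean z-score lies beyond plus or minus 2, in either direction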
Meaning of the calls: active = changed p65 translocation (either direction); inactive = no clear change

gene	PubChem SID	siRNA vendor or control pool	p65 translocation z-score, replicate mean	p65 translocation z-score, replicate 1	p65 translocation z-score, replicate 2	gene median z-score, per vendor
Gpr26 (GeneID 233919)	SID315488391	ambion single siRNA	1.56	2.58	0.54	-0.472
Gpr26 (GeneID 233919)	SID315488392	ambion single siRNA	-1.76	-0.472	-3.05	-0.472
Gpr26 (GeneID 233919)	SID315488393	ambion single siRNA	-1.86	-1.86		-0.472
Gpr26 (GeneID 233919)	SID315488394	qiagen single siRNA	-1.43	-3.11	0.25	-1.97
Gpr26 (GeneID 233919)	SID315488395	qiagen single siRNA	-1.55	-1.13	-1.97	-1.97
Gpr26 (GeneID 233919)	SID315488396	qiagen single siRNA	-2.78 (active)	-2.78		-1.97
Cdkn1a (GeneID 12575)	SID315483930	ambion single siRNA	1.32	6.01	-3.38	3.83
Cdkn1a (GeneID 12575)	SID315483931	ambion single siRNA	5.56 (active)	5.56		3.83
Cdkn1a (GeneID 12575)	SID315483932	ambion single siRNA	0.137	3.83	-3.56	3.83
Cdkn1a (GeneID 12575)	SID315483933	qiagen single siRNA	-0.587	-1.3	0.128	-3.2
Cdkn1a (GeneID 12575)	SID315483934	qiagen single siRNA	-5.01 (active)	-4.46	-5.55	-3.2
Cdkn1a (GeneID 12575)	SID315483935	qiagen single siRNA	-3.2 (active)	-2.49	-3.91	-3.2
Itga10 (GeneID 213119)	SID315488100	qiagen single siRNA	0.314	0.114	0.515	0.476
Itga10 (GeneID 213119)	SID315488101	qiagen single siRNA	3.84 (active)	3.84		0.476
Itga10 (GeneID 213119)	SID315488102	qiagen single siRNA	-0.748	-1.97	0.476	0.476
Clta (GeneID 12757)	SID315483963	ambion single siRNA	-0.463	-0.463		-1.8
Clta (GeneID 12757)	SID315483964	ambion single siRNA	-3.7 (active)	-3.7		-1.8
Clta (GeneID 12757)	SID315483965	ambion single siRNA	-1.8	-1.26	-2.33	-1.8
Clta (GeneID 12757)	SID315483966	qiagen single siRNA	2.22 (active)	1.67	2.78	0.87
Clta (GeneID 12757)	SID315483967	qiagen single siRNA	0.889	-0.2	1.98	0.87
Clta (GeneID 12757)	SID315483968	qiagen single siRNA	-0.661	0.0653	-1.39	0.87

Not a retest: an excerpt of the list.
gene	PubChem SID	siRNA vendor or control pool	p65 translocation z-score, replicate mean	p65 translocation z-score, replicate 1	p65 translocation z-score, replicate 2	gene median z-score, per vendor
Clta (GeneID 12757)	SID315483965	ambion single siRNA	-1.8	-1.26	-2.33	-1.8
Clta (GeneID 12757)	SID315483966	qiagen single siRNA	2.22 (active)	1.67	2.78	0.87
Clta (GeneID 12757)	SID315483967	qiagen single siRNA	0.889	-0.2	1.98	0.87
